Our source for the binding values is article PMC9839743.

By UniProt entry, the sequences of proteins in these tests, tags left out.
UniProt O75884: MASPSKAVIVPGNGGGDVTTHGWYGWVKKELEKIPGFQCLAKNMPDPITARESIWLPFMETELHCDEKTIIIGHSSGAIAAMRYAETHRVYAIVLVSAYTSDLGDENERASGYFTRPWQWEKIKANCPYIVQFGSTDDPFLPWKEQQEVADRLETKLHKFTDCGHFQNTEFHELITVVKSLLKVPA
UniProt O94762: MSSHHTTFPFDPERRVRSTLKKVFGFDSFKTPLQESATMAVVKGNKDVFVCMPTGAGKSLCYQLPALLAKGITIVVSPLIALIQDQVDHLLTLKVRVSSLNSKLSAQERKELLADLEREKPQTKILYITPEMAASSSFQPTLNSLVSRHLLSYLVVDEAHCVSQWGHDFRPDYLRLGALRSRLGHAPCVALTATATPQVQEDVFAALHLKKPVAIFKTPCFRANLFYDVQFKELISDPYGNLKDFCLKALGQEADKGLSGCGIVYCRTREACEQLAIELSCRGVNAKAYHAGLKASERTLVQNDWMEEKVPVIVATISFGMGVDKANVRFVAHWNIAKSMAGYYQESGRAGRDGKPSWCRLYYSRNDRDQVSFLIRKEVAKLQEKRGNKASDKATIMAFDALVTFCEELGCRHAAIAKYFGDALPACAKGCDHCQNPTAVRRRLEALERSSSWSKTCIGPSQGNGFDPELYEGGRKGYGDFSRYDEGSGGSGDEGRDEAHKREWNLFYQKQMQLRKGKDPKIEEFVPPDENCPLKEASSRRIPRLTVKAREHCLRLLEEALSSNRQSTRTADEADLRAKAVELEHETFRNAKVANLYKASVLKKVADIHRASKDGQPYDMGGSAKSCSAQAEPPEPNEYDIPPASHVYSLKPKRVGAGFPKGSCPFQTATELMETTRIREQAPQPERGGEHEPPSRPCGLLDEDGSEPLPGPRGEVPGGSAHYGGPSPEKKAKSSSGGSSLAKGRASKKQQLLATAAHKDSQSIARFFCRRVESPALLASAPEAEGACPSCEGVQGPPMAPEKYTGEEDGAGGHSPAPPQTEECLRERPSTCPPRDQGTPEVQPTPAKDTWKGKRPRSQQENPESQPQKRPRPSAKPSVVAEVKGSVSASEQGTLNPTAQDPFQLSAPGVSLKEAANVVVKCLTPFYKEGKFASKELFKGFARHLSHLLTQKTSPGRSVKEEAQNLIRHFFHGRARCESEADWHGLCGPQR
UniProt Q5UIP0: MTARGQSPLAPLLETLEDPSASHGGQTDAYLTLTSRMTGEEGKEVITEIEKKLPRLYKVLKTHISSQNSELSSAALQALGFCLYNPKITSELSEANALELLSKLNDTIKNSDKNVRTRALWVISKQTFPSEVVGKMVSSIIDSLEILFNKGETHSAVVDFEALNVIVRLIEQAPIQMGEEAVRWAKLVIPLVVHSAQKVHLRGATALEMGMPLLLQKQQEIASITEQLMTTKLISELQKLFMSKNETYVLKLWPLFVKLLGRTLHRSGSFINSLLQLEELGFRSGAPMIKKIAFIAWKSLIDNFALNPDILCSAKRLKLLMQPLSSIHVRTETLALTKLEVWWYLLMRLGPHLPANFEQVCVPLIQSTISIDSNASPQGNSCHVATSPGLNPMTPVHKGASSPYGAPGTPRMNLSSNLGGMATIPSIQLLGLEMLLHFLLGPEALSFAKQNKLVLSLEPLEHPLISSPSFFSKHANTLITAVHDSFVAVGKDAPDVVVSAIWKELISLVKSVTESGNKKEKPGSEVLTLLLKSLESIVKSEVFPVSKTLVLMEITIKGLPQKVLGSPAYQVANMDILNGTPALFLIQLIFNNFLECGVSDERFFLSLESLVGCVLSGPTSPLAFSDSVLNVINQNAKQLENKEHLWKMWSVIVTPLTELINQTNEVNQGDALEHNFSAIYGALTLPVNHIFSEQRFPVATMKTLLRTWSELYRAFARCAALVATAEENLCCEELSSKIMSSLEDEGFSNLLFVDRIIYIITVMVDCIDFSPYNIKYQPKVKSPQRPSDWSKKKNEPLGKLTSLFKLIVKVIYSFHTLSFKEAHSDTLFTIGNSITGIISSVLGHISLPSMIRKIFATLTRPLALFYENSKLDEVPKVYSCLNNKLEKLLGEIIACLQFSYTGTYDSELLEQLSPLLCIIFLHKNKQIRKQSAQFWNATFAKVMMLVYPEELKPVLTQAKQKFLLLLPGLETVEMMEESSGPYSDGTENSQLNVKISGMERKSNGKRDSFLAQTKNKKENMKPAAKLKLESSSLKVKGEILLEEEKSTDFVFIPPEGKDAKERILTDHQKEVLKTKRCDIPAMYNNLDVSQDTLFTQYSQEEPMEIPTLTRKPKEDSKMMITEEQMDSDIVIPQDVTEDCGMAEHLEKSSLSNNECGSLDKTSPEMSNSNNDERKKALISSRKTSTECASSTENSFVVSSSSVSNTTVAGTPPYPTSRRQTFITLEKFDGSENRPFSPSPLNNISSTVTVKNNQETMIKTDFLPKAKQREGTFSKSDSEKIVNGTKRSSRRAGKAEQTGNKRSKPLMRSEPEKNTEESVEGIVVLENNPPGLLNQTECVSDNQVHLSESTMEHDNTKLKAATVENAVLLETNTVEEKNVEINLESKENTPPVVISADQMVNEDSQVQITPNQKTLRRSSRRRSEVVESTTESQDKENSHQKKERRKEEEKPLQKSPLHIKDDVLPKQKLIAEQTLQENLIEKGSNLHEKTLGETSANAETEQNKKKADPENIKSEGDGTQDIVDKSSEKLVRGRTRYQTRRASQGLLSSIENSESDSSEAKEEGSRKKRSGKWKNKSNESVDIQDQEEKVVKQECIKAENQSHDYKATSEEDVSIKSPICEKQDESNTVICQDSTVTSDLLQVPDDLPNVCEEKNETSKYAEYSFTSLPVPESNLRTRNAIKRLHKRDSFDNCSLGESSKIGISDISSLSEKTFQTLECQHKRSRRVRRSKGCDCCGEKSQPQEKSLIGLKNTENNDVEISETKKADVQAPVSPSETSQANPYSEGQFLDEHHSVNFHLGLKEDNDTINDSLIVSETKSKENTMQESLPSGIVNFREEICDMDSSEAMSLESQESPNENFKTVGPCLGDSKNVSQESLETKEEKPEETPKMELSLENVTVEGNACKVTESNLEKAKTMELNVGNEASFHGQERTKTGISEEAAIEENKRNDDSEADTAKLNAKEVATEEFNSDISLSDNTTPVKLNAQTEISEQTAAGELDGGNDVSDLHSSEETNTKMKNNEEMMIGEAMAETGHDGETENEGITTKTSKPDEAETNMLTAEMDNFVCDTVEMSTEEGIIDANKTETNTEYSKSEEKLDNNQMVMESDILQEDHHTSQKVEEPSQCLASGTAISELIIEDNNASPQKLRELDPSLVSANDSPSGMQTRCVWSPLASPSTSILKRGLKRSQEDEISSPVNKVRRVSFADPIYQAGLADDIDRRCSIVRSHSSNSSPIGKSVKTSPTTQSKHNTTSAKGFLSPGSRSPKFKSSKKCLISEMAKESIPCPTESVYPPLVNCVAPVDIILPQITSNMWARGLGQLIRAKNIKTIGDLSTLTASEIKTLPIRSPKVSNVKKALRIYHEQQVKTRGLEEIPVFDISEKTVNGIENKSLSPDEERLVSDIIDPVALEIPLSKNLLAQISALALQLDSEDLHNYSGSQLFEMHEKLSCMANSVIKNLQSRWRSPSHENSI
UniProt P62318: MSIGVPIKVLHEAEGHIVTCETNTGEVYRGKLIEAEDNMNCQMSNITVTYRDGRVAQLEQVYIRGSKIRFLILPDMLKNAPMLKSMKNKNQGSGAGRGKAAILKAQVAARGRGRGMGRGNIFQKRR

No constants are given. Whether binding was seen depends on the method and setting. In cells and extracts the contact can be indirect. Here binding means that the protein was enriched with, or labelled near, the bait; the list need not be complete.

The labels stand for the following.
B1: MCM5 (protein, UniProt P33992 1-734)
chain: MSGFDDPGIFYSDSFGGDAQADEGQARKSQLQRRFKEFLRQYRVGTDRTGFTFKYRDELKRHYNLGEYWIEVEMEDLASFDEDLADYLYKQPAEHLQLLEEAAKEVADEVTRPRPSGEEVLQDIQVMLKSDASPSSIRSLKSDMMSHLVKIPGIIIAASAVRAKATRISIQCRSCRNTLTNIAMRPGLEGYALPRKCNTDQAGRPKCPLDPYFIMPDKCKCVDFQTLKLQELPDAVPHGEMPRHMQLYCDRYLCDKVVPGNRVTIMGIYSIKKFGLTTSRGRDRVGVGIRSSYIRVLGIQVDTDGSGRSFAGAVSPQEEEEFRRLAALPNVYEVISKSIAPSIFGGTDMKKAIACLLFGGSRKRLPDGLTRRGDINLLMLGDPGTAKSQLLKFVEKCSPIGVYTSGKGSSAAGLTASVMRDPSSRNFIMEGGAMVLADGGVVCIDEFDKMREDDRVAIHEAMEQQTISIAKAGITTTLNSRCSVLAAANSVFGRWDETKGEDNIDFMPTILSRFDMIFIVKDEHNEERDVMLAKHVITLHVSALTQTQAVEGEIDLAKLKKFIAYCRVKCGPRLSAEAAEKLKNRYIIMRSGARQHERDSDRRSSIPITVRQLEAIVRIAEALSKMKLQPFATEADVEEALRLFQVSTLDAALSGTLSGVEGFTSQEDQEMLSRIEKQLKRRFAIGSQVSEHSIIKDFTKQKYPEHAIHKVLQLMLRRGEIQHRMQRKVLYRLK

This assay addresses retinoblastoma binding protein 9 (RBBP9), FLAG-tagged (human) (UniProt O75884). Put plainly: affinity purification with mass spectrometry; RBBP9-FLAG overexpressed in HEK293T for 48 h; cleared lysate (1% Nonidet P-40 substitute, 10% glycerol, 50 mM MgCl2, 200 mM NaCl) on anti-FLAG M2 beads overnight at 4 °C; eluted with 3x FLAG peptide; GeLC-MS/MS with spectral counting; FLAG-FANCC co-IP as control.
Consider RECQL5 (from UniProt O94762 1-991), for which the binding result is “binds”.

Consider RIF1 (from UniProt Q5UIP0 1-2472), for which the binding result is “binds”.

Take SNRPD3 (from UniProt P62318 1-126): the binding entry was “binds”.

B1: the binding result is “binds”.
